Test results reported in patent US8795997B2 (priority 2009, dated 2014).
Read-outs that look alike come from different tables or passages of the source.

How the values were obtained:
[1] = test system: yeast Saccharomyces cerevisiae; assay: Simultaneous saccharification and fermentation (SSF) of sugarcane bagass slurry; type: cell-based; conditions: 7.5 and 10 mM
Procedure: The pretreatment of sugarcane bagass for SSF experiments was performed in the Swedish cellulosic ethanol pilot plant (operated by SEKAB E-Technology, Örnskoldsvik, Sweden). Sugarcane bagass was treated in a continuous mode in a 30-liter reactor at a temperature of 198-199° C. and with a residence time of 13-14 min. The feed rate was 24 kg (dry weight) per h and the bagass was impregnated with sulfur dioxide (0.5 kg/h). The pH after pretreatment was 2.7. The dry matter content was 19%. The pretreated material was cooled and stored at 4° C. until further use.
SSF experiments were also performed with sugarcane bagass slurries. The sugarcane bagass slurries were prepared as described in Example 1. Reducing agents, dithionite and sulphite, respectively, were added 10 min prior to inoculum in concentrations of studied 7.5 and 10 mM. The ethanol concentration was measured after 13 and 45 hours according to the protocol described in Example 1.

[2] = 5 mM added, pH 5.5, 23° C., 10 min
[3] = 10 mM added, pH 5.5, 23° C., 10 min
[4] = ammonium hydroxide detoxification, pH 9, 55° C., 3 h

## O=S([O-])[O-].[Na+].[Na+] [Sulphite, sodium sulphite]
[1]
  Formation of precipitates: did not lead to any formation of precipitates
[2]
  Concentration of Arabin. (arabinose): 0.2 ± 0.1 g/L
  Concentration of Galact (galactose): 9.6 ± 0.7 g/L
  Concentration of HMF (2-hydroxymethylfurfural): 2.9 ± 0.1 g/L
  Concentration of Phen. (phenolic compounds): 0.56 ± 0.04 g/L
  Concentration of acetic acid: 3.1 ± 0.4 g/L
  Concentration of formic acid: 0.7 ± 0.1 g/L
  Concentration of furfural: 1.0 ± 0.1 g/L
  Concentration of glucose: 85.0 ± 0.2 g/L
  Concentration of levulinic acid: 0.3 ± 0.1 g/L
  Concentration of mannose: 0.3 ± 0.1 g/L
  Concentration of xylose: 14.1 ± 0.3 g/L
[3]
  Concentration of Arabin. (arabinose): 0.2 ± 0.1 g/L
  Concentration of Galact (galactose): 9.6 ± 0.1 g/L
  Concentration of HMF (2-hydroxymethylfurfural): 3.0 ± 0.1 g/L
  Concentration of Phen. (phenolic compounds): 0.63 ± 0.01 g/L
  Concentration of acetic acid: 3.3 ± 0.1 g/L
  Concentration of formic acid: 0.7 ± 0.1 g/L
  Concentration of furfural: 1.0 ± 0.1 g/L
  Concentration of glucose: 85.6 ± 0.2 g/L
  Concentration of levulinic acid: 0.3 ± 0.1 g/L
  Concentration of mannose: 0.4 ± 0.1 g/L
  Concentration of xylose: 14.3 ± 0.1 g/L

## N [NH4OH, ammonium hydroxide, reference compound]
[4]
  Concentration of Arabin. (arabinose): 0.2 ± 0.1 g/L
  Concentration of Galact (galactose): 8.6 ± 0.1 g/L
  Concentration of HMF (2-hydroxymethylfurfural): 1.6 ± 0.1 g/L
  Concentration of Phen. (phenolic compounds): 0.60 ± 0.01 g/L
  Concentration of acetic acid: 3.2 ± 0.1 g/L
  Concentration of formic acid: 0.7 ± 0.1 g/L
  Concentration of furfural: 0.6 ± 0.1 g/L
  Concentration of glucose: 85.8 ± 0.4 g/L
  Concentration of levulinic acid: 0.2 ± 0.1 g/L
  Concentration of mannose: 0.3 ± 0.1 g/L
  Concentration of xylose: 12.6 ± 0.2 g/L

## O=S([O-])S(=O)[O-].[Na+].[Na+] [Dithionite, Sodium dithionite]
[1]
  Formation of precipitates: did not lead to any formation of precipitates
[2]
  Concentration of Arabin. (arabinose): 0.2 ± 0.1 g/L
  Concentration of Galact (galactose): 9.4 ± 0.1 g/L
  Concentration of HMF (2-hydroxymethylfurfural): 3.0 ± 0.1 g/L
  Concentration of Phen. (phenolic compounds): 0.62 ± 0.01 g/L
  Concentration of acetic acid: 3.4 ± 0.1 g/L
  Concentration of formic acid: 0.7 ± 0.1 g/L
  Concentration of furfural: 0.9 ± 0.1 g/L
  Concentration of glucose: 85.3 ± 0.6 g/L
  Concentration of levulinic acid: 0.3 ± 0.1 g/L
  Concentration of mannose: 0.4 ± 0.1 g/L
  Concentration of xylose: 14.5 ± 0.3 g/L
[3]
  Concentration of Arabin. (arabinose): 0.3 ± 0.1 g/L
  Concentration of Galact (galactose): 9.5 ± 0.4 g/L
  Concentration of HMF (2-hydroxymethylfurfural): 3.0 ± 0.1 g/L
  Concentration of Phen. (phenolic compounds): 0.54 ± 0.06 g/L
  Concentration of acetic acid: 3.6 ± 0.3 g/L
  Concentration of formic acid: 0.8 ± 0.1 g/L
  Concentration of furfural: 0.9 ± 0.1 g/L
  Concentration of glucose: 85.8 ± 0.4 g/L
  Concentration of levulinic acid: 0.3 ± 0.1 g/L
  Concentration of mannose: 0.3 ± 0.1 g/L
  Concentration of xylose: 14.3 ± 0.7 g/L
